Our source for the log2 fold change values is the supplement of paper PMC10849652.

The chains behind the UniProt entries cited, without tags or fusion partners. Where a name states a change or a piece, a line headed by the entry shows the natural chain unless it says otherwise.
UniProt P12955: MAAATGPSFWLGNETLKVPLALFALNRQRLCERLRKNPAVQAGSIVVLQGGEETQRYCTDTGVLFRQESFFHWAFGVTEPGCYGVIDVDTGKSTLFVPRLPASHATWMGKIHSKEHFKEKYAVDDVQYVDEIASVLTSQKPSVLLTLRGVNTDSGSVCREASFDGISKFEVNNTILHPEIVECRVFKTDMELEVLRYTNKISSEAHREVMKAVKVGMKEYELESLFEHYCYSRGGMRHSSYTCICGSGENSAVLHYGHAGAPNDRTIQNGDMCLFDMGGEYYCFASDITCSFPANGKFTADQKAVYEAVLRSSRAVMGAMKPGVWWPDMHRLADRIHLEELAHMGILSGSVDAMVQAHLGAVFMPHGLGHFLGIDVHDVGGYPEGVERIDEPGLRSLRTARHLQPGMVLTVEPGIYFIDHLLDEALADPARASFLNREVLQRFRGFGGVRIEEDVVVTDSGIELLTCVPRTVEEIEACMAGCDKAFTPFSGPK
UniProt Q9BUL8: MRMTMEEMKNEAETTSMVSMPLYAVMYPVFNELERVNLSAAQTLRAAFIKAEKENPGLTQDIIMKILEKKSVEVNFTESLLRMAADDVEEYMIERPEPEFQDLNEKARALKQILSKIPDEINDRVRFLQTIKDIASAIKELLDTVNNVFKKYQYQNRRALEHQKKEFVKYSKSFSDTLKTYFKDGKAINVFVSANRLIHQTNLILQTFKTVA
UniProt P51003: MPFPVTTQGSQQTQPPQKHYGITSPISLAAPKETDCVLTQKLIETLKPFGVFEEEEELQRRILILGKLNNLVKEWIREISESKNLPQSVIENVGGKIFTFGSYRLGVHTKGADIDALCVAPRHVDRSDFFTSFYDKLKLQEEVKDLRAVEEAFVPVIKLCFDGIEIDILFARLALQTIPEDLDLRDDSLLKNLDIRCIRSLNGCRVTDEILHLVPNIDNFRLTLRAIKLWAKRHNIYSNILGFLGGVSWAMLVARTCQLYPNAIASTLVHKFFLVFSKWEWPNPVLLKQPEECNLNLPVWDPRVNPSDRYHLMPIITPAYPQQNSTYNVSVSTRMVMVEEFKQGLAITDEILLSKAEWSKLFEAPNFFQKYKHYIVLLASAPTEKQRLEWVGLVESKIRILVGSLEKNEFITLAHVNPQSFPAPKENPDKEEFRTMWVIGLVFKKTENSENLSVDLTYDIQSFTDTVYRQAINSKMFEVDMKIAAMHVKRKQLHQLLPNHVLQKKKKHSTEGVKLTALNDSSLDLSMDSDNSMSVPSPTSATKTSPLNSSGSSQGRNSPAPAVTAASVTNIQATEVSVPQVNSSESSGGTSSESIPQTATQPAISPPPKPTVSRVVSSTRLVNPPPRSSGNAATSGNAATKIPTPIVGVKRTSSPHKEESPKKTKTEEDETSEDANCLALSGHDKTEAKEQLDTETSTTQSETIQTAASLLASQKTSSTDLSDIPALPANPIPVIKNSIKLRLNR
UniProt Q9HBI1: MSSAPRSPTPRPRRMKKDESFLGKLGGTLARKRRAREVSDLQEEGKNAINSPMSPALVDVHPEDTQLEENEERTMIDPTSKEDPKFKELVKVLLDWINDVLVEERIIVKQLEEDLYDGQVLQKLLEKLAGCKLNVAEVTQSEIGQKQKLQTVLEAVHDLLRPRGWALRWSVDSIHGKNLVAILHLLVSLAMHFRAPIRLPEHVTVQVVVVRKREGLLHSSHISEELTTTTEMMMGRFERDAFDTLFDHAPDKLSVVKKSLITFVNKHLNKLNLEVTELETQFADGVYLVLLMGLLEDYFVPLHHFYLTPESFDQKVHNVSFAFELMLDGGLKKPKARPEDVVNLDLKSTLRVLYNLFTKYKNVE
UniProt Q96RD7, whole entry, looked up: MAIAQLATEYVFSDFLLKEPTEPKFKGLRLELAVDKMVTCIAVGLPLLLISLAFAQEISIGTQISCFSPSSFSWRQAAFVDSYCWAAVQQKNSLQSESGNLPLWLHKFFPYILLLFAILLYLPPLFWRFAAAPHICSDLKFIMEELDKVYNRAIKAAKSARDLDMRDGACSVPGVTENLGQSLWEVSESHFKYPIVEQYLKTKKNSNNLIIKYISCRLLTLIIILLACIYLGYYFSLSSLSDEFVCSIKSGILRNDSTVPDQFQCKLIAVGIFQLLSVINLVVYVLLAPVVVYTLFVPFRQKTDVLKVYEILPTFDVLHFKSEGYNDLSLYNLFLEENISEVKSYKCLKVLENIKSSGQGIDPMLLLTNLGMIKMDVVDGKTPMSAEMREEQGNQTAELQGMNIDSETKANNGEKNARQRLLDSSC
UniProt P43034: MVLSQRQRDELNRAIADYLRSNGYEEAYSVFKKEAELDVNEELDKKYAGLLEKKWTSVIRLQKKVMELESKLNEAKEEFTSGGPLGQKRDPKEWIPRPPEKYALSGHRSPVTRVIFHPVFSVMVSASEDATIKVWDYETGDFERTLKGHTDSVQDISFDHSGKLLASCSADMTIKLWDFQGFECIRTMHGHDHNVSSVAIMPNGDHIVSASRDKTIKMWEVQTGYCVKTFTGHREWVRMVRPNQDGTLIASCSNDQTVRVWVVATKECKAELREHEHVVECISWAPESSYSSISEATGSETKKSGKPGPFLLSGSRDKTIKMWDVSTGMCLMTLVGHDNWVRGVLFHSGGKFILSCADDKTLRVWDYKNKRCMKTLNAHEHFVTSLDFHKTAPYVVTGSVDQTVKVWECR
UniProt P30101, whole entry, looked up: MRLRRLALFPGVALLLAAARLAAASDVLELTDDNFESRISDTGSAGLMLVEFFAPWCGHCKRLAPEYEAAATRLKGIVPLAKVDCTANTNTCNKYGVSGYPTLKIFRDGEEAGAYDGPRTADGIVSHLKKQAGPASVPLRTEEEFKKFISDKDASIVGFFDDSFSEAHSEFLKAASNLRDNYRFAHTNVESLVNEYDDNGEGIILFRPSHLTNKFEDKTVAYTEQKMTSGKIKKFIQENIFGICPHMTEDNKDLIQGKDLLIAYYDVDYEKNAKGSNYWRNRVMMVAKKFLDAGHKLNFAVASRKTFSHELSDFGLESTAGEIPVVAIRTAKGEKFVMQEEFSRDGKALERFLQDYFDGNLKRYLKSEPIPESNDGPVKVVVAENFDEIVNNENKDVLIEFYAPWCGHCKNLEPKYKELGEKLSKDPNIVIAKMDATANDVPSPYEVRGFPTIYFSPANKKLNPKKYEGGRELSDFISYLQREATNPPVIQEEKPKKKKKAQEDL
UniProt P11177, whole entry, looked up: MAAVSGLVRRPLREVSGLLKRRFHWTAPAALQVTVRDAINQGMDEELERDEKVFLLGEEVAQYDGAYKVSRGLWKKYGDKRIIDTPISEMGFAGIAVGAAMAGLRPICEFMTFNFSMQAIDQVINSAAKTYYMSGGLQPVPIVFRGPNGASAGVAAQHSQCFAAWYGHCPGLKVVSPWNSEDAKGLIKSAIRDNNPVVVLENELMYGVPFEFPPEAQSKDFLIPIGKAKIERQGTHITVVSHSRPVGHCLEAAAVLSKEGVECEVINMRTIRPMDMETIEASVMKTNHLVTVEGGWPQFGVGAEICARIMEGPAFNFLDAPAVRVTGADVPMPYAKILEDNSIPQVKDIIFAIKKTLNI
UniProt Q9H074: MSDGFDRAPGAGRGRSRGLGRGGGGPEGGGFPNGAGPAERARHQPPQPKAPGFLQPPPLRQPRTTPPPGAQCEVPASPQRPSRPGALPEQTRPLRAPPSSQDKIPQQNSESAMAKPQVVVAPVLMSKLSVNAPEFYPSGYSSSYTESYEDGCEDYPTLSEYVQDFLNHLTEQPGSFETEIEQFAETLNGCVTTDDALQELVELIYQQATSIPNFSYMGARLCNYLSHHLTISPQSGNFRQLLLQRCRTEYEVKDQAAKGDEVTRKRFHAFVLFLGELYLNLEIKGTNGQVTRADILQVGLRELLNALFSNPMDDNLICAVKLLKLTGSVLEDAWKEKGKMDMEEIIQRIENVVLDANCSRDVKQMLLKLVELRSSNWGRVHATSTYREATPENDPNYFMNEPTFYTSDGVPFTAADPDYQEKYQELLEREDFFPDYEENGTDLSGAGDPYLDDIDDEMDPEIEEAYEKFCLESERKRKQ
UniProt Q13371: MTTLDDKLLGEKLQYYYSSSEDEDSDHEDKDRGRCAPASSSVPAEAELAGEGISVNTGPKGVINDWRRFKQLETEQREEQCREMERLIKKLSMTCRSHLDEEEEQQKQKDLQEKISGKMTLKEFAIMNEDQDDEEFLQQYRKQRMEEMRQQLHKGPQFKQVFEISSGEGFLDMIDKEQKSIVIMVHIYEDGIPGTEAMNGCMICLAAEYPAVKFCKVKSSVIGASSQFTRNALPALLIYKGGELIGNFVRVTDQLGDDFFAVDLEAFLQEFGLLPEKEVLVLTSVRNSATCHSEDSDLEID
UniProt Q9UNF0: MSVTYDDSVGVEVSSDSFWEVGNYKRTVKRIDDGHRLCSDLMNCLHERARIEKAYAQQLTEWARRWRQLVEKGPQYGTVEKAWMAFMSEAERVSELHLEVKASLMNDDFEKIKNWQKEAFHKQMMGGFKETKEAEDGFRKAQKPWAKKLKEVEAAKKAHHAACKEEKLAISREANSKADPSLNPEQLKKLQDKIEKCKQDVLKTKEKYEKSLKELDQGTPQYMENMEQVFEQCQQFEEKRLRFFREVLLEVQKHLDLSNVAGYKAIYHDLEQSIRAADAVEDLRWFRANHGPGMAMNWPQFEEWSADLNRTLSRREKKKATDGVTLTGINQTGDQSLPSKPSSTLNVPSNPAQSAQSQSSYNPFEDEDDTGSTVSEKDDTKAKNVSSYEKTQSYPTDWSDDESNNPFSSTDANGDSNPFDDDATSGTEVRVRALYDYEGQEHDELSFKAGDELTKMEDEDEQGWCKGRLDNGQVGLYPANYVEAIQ
UniProt Q9UHG3: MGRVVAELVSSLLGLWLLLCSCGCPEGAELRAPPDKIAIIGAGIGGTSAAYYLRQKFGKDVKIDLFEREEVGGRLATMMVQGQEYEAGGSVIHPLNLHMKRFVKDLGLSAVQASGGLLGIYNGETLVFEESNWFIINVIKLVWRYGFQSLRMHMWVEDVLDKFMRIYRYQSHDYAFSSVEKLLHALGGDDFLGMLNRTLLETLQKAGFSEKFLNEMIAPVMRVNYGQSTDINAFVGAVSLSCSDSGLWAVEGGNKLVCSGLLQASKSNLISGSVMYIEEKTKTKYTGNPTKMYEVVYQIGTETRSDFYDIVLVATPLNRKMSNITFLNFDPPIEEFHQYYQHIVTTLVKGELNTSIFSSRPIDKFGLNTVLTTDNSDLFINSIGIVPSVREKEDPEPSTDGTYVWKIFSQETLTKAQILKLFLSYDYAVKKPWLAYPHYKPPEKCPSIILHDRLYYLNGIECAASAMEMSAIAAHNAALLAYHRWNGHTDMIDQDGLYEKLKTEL
UniProt Q9NWT1: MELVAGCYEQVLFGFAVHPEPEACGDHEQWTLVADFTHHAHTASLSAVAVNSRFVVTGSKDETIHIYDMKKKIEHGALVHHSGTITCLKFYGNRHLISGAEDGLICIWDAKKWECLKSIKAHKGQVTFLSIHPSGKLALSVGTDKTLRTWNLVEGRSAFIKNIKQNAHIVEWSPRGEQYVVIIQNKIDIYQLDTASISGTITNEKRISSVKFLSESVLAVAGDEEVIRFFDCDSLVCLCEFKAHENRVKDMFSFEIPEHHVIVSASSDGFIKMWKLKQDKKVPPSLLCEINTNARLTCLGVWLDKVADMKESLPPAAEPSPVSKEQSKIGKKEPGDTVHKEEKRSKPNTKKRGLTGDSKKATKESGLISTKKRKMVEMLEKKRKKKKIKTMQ
UniProt Q9NUG6, whole entry, looked up: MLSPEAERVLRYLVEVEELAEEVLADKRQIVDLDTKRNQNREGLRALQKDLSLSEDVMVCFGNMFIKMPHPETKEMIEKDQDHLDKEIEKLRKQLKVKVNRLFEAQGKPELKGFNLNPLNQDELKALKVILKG
UniProt Q13310, whole entry, looked up: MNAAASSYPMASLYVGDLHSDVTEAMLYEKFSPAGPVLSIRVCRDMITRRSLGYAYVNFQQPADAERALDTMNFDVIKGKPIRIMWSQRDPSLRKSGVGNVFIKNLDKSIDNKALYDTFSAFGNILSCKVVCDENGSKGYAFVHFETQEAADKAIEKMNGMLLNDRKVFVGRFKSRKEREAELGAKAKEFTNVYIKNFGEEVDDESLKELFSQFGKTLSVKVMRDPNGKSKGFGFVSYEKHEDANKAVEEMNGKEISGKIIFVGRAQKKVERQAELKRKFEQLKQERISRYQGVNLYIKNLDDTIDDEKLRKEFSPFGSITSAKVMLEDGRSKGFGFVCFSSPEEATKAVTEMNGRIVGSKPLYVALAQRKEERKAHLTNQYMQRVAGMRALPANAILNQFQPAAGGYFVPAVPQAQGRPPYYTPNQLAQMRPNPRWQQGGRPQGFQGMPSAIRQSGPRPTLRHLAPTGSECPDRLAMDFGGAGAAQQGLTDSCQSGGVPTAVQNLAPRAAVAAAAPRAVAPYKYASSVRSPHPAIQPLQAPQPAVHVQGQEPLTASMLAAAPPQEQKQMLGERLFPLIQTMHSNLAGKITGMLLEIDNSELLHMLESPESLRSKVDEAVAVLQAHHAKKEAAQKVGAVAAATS

The list shows a part of the results.

Compound in the first experiment: Cc1cc(Nc2cc(N3CCN(C)CC3)nc(Sc3ccc(NC(=O)C4CC4)cc3)n2)n[nH]1 [tozasertib]
Briefly: log2 fold change, soluble protein after heating vs DMSO (PISA); higher = thermal stabilisation; K562 cells, 10 uM, 30 min; active = over 0.2 and 3.5 SD of the protein, either way, in both replicates (recomputed). The method in brief:
(§1)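 Soluble protein was quantified by TMTpro 16plex LC-MS/MS after channel sums were equalised. It was obtained as the supernatant after 21,000xg for 90 min from pooled aliquots of K562 cells (2×10^6 cells/mL, 10 μM compound, 30 min) heated for 3 min across 48°C-58°C and extracted in PBS with 0.5% NP-40 at 4°C. Thermal stability values are relative to control samples and come from duplicates. They are given as log2 fold changes.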
Consider PEPD (UniProt P12955), for which the log2 fold change is inactive: 0.058.

For PDCD10 (UniProt Q9BUL8), the log2 fold change was inactive: -0.06.

As for PAPOLA (UniProt P51003), the log2 fold change was inactive: -0.02.

As to PARVB (UniProt Q9HBI1), the log2 fold change is inactive: -0.056.

For the target PANX1 (UniProt Q96RD7), the log2 fold change was inactive: -0.024.

Consider PAFAH1B1 (UniProt P43034), for which the log2 fold change was inactive: -0.025.

Take PDIA3 (UniProt P30101): the log2 fold change is inactive: 0.049.

Turning to PDHB (UniProt P11177), the log2 fold change is inactive: 0.064.

On to PAIP1 (UniProt Q9H074), for which the log2 fold change was inactive: 0.01.

With PDCL (UniProt Q13371), the log2 fold change was inactive: 0.027.

Compound in a further experiment: Cc1cc(SCc2sc(-c3ccc(C(F)(F)F)cc3)nc2C)ccc1OCC(=O)O
Described as above. The method in brief: as §1
For PEX12 (UniProt O00623), the log2 fold change was inactive: 0.

Take PDHX (UniProt O00330): the log2 fold change is inactive: 0.085.

With PANK4 (UniProt Q9NVE7), the log2 fold change is inactive: 0.037.

For the target PDSS1 (UniProt Q5T2R2), the log2 fold change is inactive: 0.074.

As for PDLIM1 (UniProt O00151), the log2 fold change is inactive: -0.005.

Consider PDLIM4 (UniProt P50479), for which the log2 fold change is inactive: -0.083.

As for PAK2 (UniProt Q13177), the log2 fold change was inactive: -0.002.

Take PACSIN2 (UniProt Q9UNF0): the log2 fold change was inactive: 0.172.

As for PDXDC1 (UniProt Q6P996), the log2 fold change is inactive: 0.062.

For PASK (UniProt Q96RG2), the log2 fold change was inactive: -0.013.

As to PARD6B (UniProt Q9BYG5), the log2 fold change was inactive: 0.027.

For PEBP1 (UniProt P30086), the log2 fold change is inactive: -0.036.

As for PCYOX1 (UniProt Q9UHG3), the log2 fold change was inactive: -0.046.

For PDXP (UniProt Q96GD0), the log2 fold change was inactive: -0.068.

For PER3 isoform 2 (UniProt P56645), the log2 fold change is inactive: -0.113.

With PEX1 (UniProt O43933), the log2 fold change is inactive: 0.029.

Take PARK7 (UniProt Q99497): the log2 fold change was inactive: 0.007.

In the case of PAK1IP1 (UniProt Q9NWT1), the log2 fold change is inactive: 0.024.

PES1 (UniProt O00541): the log2 fold change was inactive: 0.074.

On to PDRG1 (UniProt Q9NUG6), for which the log2 fold change was inactive: -0.004.

As for PDXK (UniProt O00764), the log2 fold change is inactive: -0.012.

Take PABPC4 isoform 3 (UniProt Q13310): the log2 fold change was inactive: 0.037.

For PCMT1 isoform 2 (UniProt P22061), the log2 fold change is inactive: 0.024.

Consider PEPD (UniProt P12955), for which the log2 fold change is inactive: -0.059.

For the target PDCD10 (UniProt Q9BUL8), the log2 fold change was inactive: 0.025.

Take PAPOLA (UniProt P51003): the log2 fold change is inactive: 0.022.

On to PARVB (UniProt Q9HBI1), for which the log2 fold change was inactive: 0.066.

Consider PANX1 (UniProt Q96RD7), for which the log2 fold change was inactive: 0.017.

Consider PAFAH1B1 (UniProt P43034), for which the log2 fold change was inactive: -0.02.

PDIA3 (UniProt P30101): the log2 fold change is inactive: 0.022.

Turning to PDHB (UniProt P11177), the log2 fold change is inactive: 0.194.

On to PAIP1 (UniProt Q9H074), for which the log2 fold change was inactive: 0.019.

On to PDCL (UniProt Q13371), for which the log2 fold change was inactive: 0.018.

Compound in the next experiment: Cc1ccc(-n2nc(C(C)(C)C)cc2NC(=O)Nc2ccc(OCCN3CCOCC3)c3ccccc23)cc1 [doramapimod]
The description is as above. Put shortly: as §1
On to PEX12 (UniProt O00623), for which the log2 fold change is inactive: -0.036.

Regarding PDHX (UniProt O00330), the log2 fold change is inactive: 0.163.

As for PANK4 (UniProt Q9NVE7), the log2 fold change was inactive: -0.049.

Consider PDSS1 (UniProt Q5T2R2), for which the log2 fold change was inactive: 0.064.

As for PDLIM1 (UniProt O00151), the log2 fold change was inactive: -0.038.

With PDLIM4 (UniProt P50479), the log2 fold change was inactive: -0.016.

For the target PAK2 (UniProt Q13177), the log2 fold change was inactive: -0.049.

Turning to PACSIN2 (UniProt Q9UNF0), the log2 fold change was inactive: 0.036.

PDXDC1 (UniProt Q6P996): the log2 fold change was inactive: 0.294.

Turning to PASK (UniProt Q96RG2), the log2 fold change was inactive: -0.026.

Turning to PARD6B (UniProt Q9BYG5), the log2 fold change is inactive: 0.054.

Turning to PEBP1 (UniProt P30086), the log2 fold change was inactive: -0.016.

As for PCYOX1 (UniProt Q9UHG3), the log2 fold change is inactive: 0.058.

Consider PDXP (UniProt Q96GD0), for which the log2 fold change is inactive: 0.003.

As to PER3 isoform 2 (UniProt P56645), the log2 fold change was inactive: 0.034.

In the case of PEX1 (UniProt O43933), the log2 fold change was inactive: -0.029.

Turning to PARK7 (UniProt Q99497), the log2 fold change is inactive: -0.001.

With PAK1IP1 (UniProt Q9NWT1), the log2 fold change was inactive: 0.34.

PES1 (UniProt O00541): the log2 fold change is inactive: 0.173.

On to PDRG1 (UniProt Q9NUG6), for which the log2 fold change is inactive: -0.008.

With PDXK (UniProt O00764), the log2 fold change is inactive: -0.007.

With PABPC4 isoform 3 (UniProt Q13310), the log2 fold change is inactive: 0.011.

With PCMT1 isoform 2 (UniProt P22061), the log2 fold change was inactive: -0.005.

For the target PEPD (UniProt P12955), the log2 fold change is inactive: -0.001.

Turning to PDCD10 (UniProt Q9BUL8), the log2 fold change is inactive: -0.009.

In the case of PAPOLA (UniProt P51003), the log2 fold change is inactive: -0.002.

For PARVB (UniProt Q9HBI1), the log2 fold change is inactive: 0.041.

Consider PANX1 (UniProt Q96RD7), for which the log2 fold change was inactive: 0.

With PAFAH1B1 (UniProt P43034), the log2 fold change was inactive: -0.04.

For PDIA3 (UniProt P30101), the log2 fold change is inactive: 0.084.

Turning to PDHB (UniProt P11177), the log2 fold change is inactive: 0.091.

On to PAIP1 (UniProt Q9H074), for which the log2 fold change was inactive: 0.016.

For PDCL (UniProt Q13371), the log2 fold change is inactive: -0.043.
